Values of other authors, collected in patent publication US20070218486A1, “Immunoassays, Haptens, Immunogens and Antibodies for Anti-HIV Therapeutics” (Ark Diagnostics, Inc., priority 2006, published 2007).
For at least one compound, name, drawing or mass did not settle the structure.

Conditions: cited from earlier work

SMILES: Nc1ccn(C2C[S+]([O-])C(CO)O2)c(=O)n1 (stereo not drawn) [trans-sulphoxide metabolite]
- pharmacological activity: pharmacologically inactive
